Consider 54 compounds from PubChem BioAssay AID1487 (National Center for Advancing Translational Sciences (NCATS), 2009).

The test in a line: qHTS Assay for Modulators of Lamin A Splicing. Conditions: HeLa LMNA splicing GFP/RFP minigene ratio, 48 h. In short, it runs like this:
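S3 HeLa cells stably expressing lamin A-EGFP splicing minigene plus DsRed2, 600 cells/well, 48 h compound exposure at 37C. Laser-scanning cytometry; analysed as GFP (500-530 nm)/RFP (575-640 nm) total intensity ratio; 0.5% DMSO vehicle.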
A general note: In qHTS, concentration-response curves come from the screen itself.

Setting [1] is: measured here: GFP splicing reporter channel.
[2] abbreviates: measured here: RFP viability control channel.

This is one part of the list. These are further read-outs of the screen, such as a control signal, another cell line or another target. No call is given for them. Most of these compounds were active or inconclusive in the main read-out, so they are no random draw. Words in brackets tell the shape of the fitted curve; partial curves, single points and poor fits give uncertain potencies.

What is called AC50 is the concentration giving half of the maximal activity seen. `COc1ccc(/C=C/c2ccncc2)c2ccccc12`: the concentration at half-maximal activity (AC50) under setting [1] was 20 µM [rising, single point] and the concentration at half-maximal activity (AC50) under setting [2] is 35.5 µM [rising, single point].
As for `COc1ccc(Cn2c(-c3ccc(C)cc3)c[n+]3ccccc23)cc1`, the AC50 under setting [2] was 7.08 µM [rising, partial curve].
Same read-out and setting: for `CCc1nc(C#N)c(N2CCCCC2)o1` the value was 0.0316 µM [falling, full curve, poor fit].
Regarding `CCOC(=O)c1[nH]c2ccc(OCC)cc2c1CCCN1C(=O)c2ccccc2C1=O`, the AC50 under setting [1] is 0.398 µM [rising, full curve, poor fit].
`CCC(C)NC(=O)Cc1c(OC)ccc2cc(Br)ccc12` (stereo unspecified): the AC50 under setting [1] is 0.158 µM [falling, single point].
For the compound `Cc1cc(Cl)c(S(=O)(=O)Nc2ccc3c(c2)OCO3)cc1OCC(=O)NC1CCCCC1`, the AC50 under setting [2] is 35.5 µM [rising, single point].
Still for that read-out and setting: for `COc1cc(C(=O)N2CCc3c([nH]c4ccccc34)C2c2ccc(F)cc2)cc(OC)c1OC` (stereo unspecified) the value was 1.41 µM [falling, full curve]; for `O=C1C2C3C=CC(C3)C2C(=O)N1CCN1CCN(S(=O)(=O)c2ccc3ccccc3c2)CC1` (stereo unspecified), 20 µM [rising, single point]; for `CC(NC(=O)c1cc2sccc2n1C)c1ccc2c(c1)OCCO2` (stereo unspecified), 10 µM [rising, partial curve, poor fit].
The same measure, in the same setting: for `CCC(=O)N1CCc2cc(CNC(=O)Cc3ccc(OC)c(OC)c3)ccc21` the value was 0.0794 µM [falling, full curve, poor fit]; for `Cc1sc(NC(=O)c2ccccc2)c(C(=O)c2ccccc2)c1C`, 10 µM [rising, partial curve, poor fit].
As to `CCN(CC)C(=O)Cn1ncc2c([nH]c3ccc(C)cc32)c1=O`, the AC50 under setting [1] was 0.224 µM [falling, full curve, poor fit].
In the case of `Cc1ccnc(NS(=O)(=O)c2ccc(Oc3ccccc3)cc2)c1`, the AC50 is 11.2 µM [rising, partial curve] under setting [1] and 12.6 µM [rising, partial curve] under setting [2].
With `CC1(C)CC(=O)C2=C(C1)c1c(ccc3ccccc13)NC2c1ccco1` (stereo unspecified), the AC50 reads like this: under setting [1], 28.2 µM [rising, partial curve, poor fit]; under setting [2], 14.1 µM [rising, partial curve, poor fit].
On to `NC(=O)NC(=O)COC(=O)CC12CC3CC(CC(C3)C1)C2`, for which, under setting [2], the AC50 is 6.31 µM [falling, partial curve, poor fit].
With `O=C(NNC(=O)c1cccnc1SCc1cccc([N+](=O)[O-])c1)c1ccccn1`, the half-maximal activity concentration (AC50) under setting [2] is 3.16 µM [rising, full curve].
The same measure, in the same setting: for `Nc1cc[n+](CC(=O)c2ccc3c(c2)OCCO3)cc1` the value was 17.8 µM [rising, single point].
With `Cc1cc(/C=N/n2cnnc2)c(C)n1-c1cccc(C(=O)O)c1`, the AC50 under setting [1] was 0.501 µM [falling, full curve].
Consider `CC(C)(C)c1ccc(OCc2cnc(Cl)s2)cc1`, for which the AC50 under setting [1] was 0.1 µM [falling, full curve, poor fit] and the half-maximal activity concentration (AC50) under setting [2] was 0.501 µM [falling, partial curve, poor fit].
On to `O=C(COc1ncnc2ccccc12)NCC1CCCO1` (stereo unspecified), for which the AC50 reads like this: under setting [1], 3.98 µM [rising, full curve, poor fit]; under setting [2], 10 µM [rising, partial curve, poor fit].
Consider `Cc1ccc(O)c(N=CC2=C(O)c3ccccc3C2=O)c1`, for which the AC50 is, setting by setting: under setting [1], 14.1 µM [rising, single point]; under setting [2], 20 µM [rising, single point].
Regarding `O=S(=O)(c1ccc2c(c1)OCCO2)N1CCC(n2nnc3cc(C(F)(F)F)ccc32)CC1`, the AC50 under setting [2] is 17.8 µM [rising, partial curve].
Turning to `COc1ccc(-c2cc(C(=O)Nc3cc(C)n(Cc4ccc(Cl)cc4)n3)no2)cc1OC`, the AC50 is 0.501 µM [rising, full curve] under setting [1] and 1.26 µM [rising, full curve] under setting [2].
With `Cc1ccc(C)c(C(=O)C(C)OC(=O)c2cccn2C)c1` (stereo unspecified), the half-maximal activity concentration (AC50) under setting [2] was 8.91 µM [rising, partial curve, poor fit].
With `COc1ccccc1OCC(=O)Nc1ccc(S(=O)(=O)N2CCCCCC2)cc1`, the AC50 is, setting by setting: under setting [1], 31.6 µM [rising, single point]; under setting [2], 31.6 µM [rising, single point].
In the case of `C=CCN1C(=O)C(C)S/C1=N\S(=O)(=O)c1ccc(Cl)cc1` (stereo unspecified), the AC50 under setting [1] was 6.31 µM [falling, single point].
With `CCN(CC)C(=O)C1CCN(Cc2cccc(OCc3ccccc3)c2)CC1`, under setting [2], the half-maximal activity concentration (AC50) is 35.5 µM [rising, single point].
Still for that read-out and setting: for `COc1ccc(CN(Cc2ccccn2)C(=O)CN2C(=O)C(C)Oc3ccccc32)cc1` (stereo unspecified) the value was 35.5 µM [rising, single point].
Turning to `COc1ccc(CNC2CC(=O)N(C)C2=O)cc1` (stereo unspecified), the AC50 was 0.00501 µM [rising, full curve, poor fit] under setting [1] and 0.00501 µM [rising, full curve, poor fit] under setting [2].
Turning to `O=C(Nc1nccs1)c1ccc([N+](=O)[O-])cc1`, the AC50 under setting [2] is 0.2 µM [falling, full curve, poor fit].
Regarding `c1coc(CNc2nc3nonc3nc2NCc2ccco2)c1`, the AC50 runs as follows: under setting [1], 12.6 µM [rising, partial curve, poor fit]; under setting [2], 12.6 µM [rising, single point].
Consider `COc1ccc(-c2ocnc2C(=O)NCc2nn(-c3ccccc3)nc2C)cc1`, for which the AC50 runs as follows: under setting [1], 31.6 µM [falling, single point]; under setting [2], 14.1 µM [falling, single point].
Consider `CCCCc1nc2ccccc2c(=O)n1NC(=O)c1c(O)c2c(n(CC(C)C)c1=O)CCCC2`, for which the AC50 is 10 µM [rising, partial curve] under setting [1] and 10 µM [rising, partial curve] under setting [2].
Take `CC(C)c1ccc(Nc2cc(C(=O)NCCCN(C)Cc3ccccc3)c3ccccc3n2)cc1`: the AC50 under setting [1] was 15.8 µM [falling, single point] and the AC50 under setting [2] was 20 µM [falling, partial curve, poor fit].
Regarding `COc1ccc2[nH]cc(CCNc3ccnc(-c4ccccc4C(F)(F)F)n3)c2c1`, the AC50 under setting [1] is 14.1 µM [falling, partial curve].
For the compound `Oc1ccc(O)c(Cc2nc3ccccc3s2)c1`, the AC50 reads like this: under setting [1], 10 µM [falling, partial curve]; under setting [2], 11.2 µM [falling, partial curve].
On to `COc1cc(/C=C2\SC(=O)N(Cc3ccc(F)cc3)C2=O)cc([N+](=O)[O-])c1O`, for which the AC50 is 35.5 µM [rising, single point] under setting [1] and 35.5 µM [rising, single point] under setting [2].
Regarding `O=C(N/N=C/c1ccc(O)c(O)c1)c1cccc(S(=O)(=O)N2CCCCC2)c1`, the concentration at half-maximal activity (AC50) under setting [1] was 12.6 µM [falling, single point].
As for `CN(C)c1ccc(NC(=O)c2cccc(C(=O)Nc3ccc(N(C)C)cc3)n2)cc1`, the AC50 reads like this: under setting [1], 35.5 µM [rising, single point]; under setting [2], 25.1 µM [rising, single point].
As to `CC(C)(C)C(=O)N1CCN(c2c(Cl)cccc2[N+](=O)[O-])CC1`, the AC50 under setting [2] was 10 µM [rising, partial curve, poor fit].
Take `C=CCc1c(C)c(C#N)c2nc3ccccc3n2c1NCCN(C)C`: the concentration at half-maximal activity (AC50) is, setting by setting: under setting [1], 11.2 µM [rising, single point]; under setting [2], 12.6 µM [rising, single point].
As to `CCOc1ccc(NC(=O)CN(c2cc(C)cc(C)c2)S(=O)(=O)c2c(C)noc2C)cc1`, the half-maximal activity concentration (AC50) under setting [2] was 10 µM [rising, partial curve, poor fit].
Consider `Cc1csc(=Nc2ccc(S(=O)(=O)N3CCOCC3)cc2)n1Cc1ccco1`, for which the half-maximal activity concentration (AC50) under setting [1] is 12.6 µM [rising, partial curve] and the AC50 under setting [2] was 25.1 µM [rising, single point].
As to `CC(Oc1ccccc1F)C(=O)Nc1ccc2ccccc2c1` (stereo unspecified), the concentration at half-maximal activity (AC50) under setting [2] is 8.91 µM [rising, partial curve].
For `CCc1nn(CCCN2CCN(c3cccc(Cl)c3)CC2)c(=O)n1CCOc1ccccc1`, the AC50 under setting [1] was 3.55 µM [falling, partial curve] and the half-maximal activity concentration (AC50) under setting [2] was 0.112 µM [falling, partial curve, poor fit].
For `Cc1c(Cl)cccc1NC(=O)CSc1nc(=O)n(Cc2ccncc2)c2c1CCC2`, the AC50 under setting [2] is 31.6 µM [rising, single point].
Still for that read-out and setting: for `Cc1ccc2c(c1)/C(=N/N1C(=O)c3ccccc3C1=O)C(=O)N2` the value was 12.6 µM [rising, partial curve].
For the compound `O=C(CCNc1cccc(F)c1)c1cccc([N+](=O)[O-])c1`, the AC50 by setting is: under setting [1], 17.8 µM [falling, partial curve, poor fit]; under setting [2], 22.4 µM [falling, partial curve, poor fit].
On to `CN(C(=O)c1ccc(OC2CCN(S(=O)(=O)N(C)C)CC2)cc1)C1CCCCC1`, for which the AC50 was 0.447 µM [falling, full curve, poor fit] under setting [1] and 0.0891 µM [falling, full curve, poor fit] under setting [2].
For `CCc1nc(C)cn1S(=O)(=O)c1ccc([N+](=O)[O-])cc1`, under setting [2], the AC50 was 3.16 µM [rising, partial curve, poor fit].
On the same count and under the same terms, for `COc1ccc(C(=O)NCc2ccc3c(c2)CCN3C(C)=O)cc1OC` the value was 0.0794 µM [falling, full curve, poor fit]; for `C/C(=N/OCO/N=C(/C)c1ccc(F)cc1)c1ccc(F)cc1`, 10 µM [rising, partial curve, poor fit].
In the case of `COCC(C)N=C1NN=C(c2c[nH]c3ccccc23)CS1` (stereo unspecified), the AC50 runs as follows: under setting [1], 0.00631 µM [falling, full curve, poor fit]; under setting [2], 0.00447 µM [falling, full curve, poor fit].
In the case of `C/C(=N\NC(=O)c1cc(-c2cccnc2)nc2ccccc12)c1ccccc1O`, the AC50 under setting [2] was 3.98 µM [rising, full curve].
